Source: PubChem BioAssay AID743454 (Peter MacCallum Cancer Centre, 2014)
Test: 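Knock-downs lowering viability or raising caspase 3/7 activity in vorinostat-treated resistant cells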 (primary screen). Cell system: human HCT116-VR colon cancer cells, selected for vorinostat resistance. Reagent: siRNA pool against human genes, 40 nM siRNA pool. Duration: vorinostat for 24 h, read-out about 72 h after transfection. Conditions: vorinostat at 2.5 µM final. Measurement: 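Two measures, CellTiter-Fluor viability and luminescent caspase 3/7 activity, each as fold change against same-plate mock wells, mean of duplicates, then screen-wide robust z-score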. Direction: viability robust z-score: higher = more viable cells than screen typical; caspase robust z-score: higher = more caspase 3/7 activity than screen typical. Call rule: 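a knock-down is a hit when classed RV1 or RV2 for lowered viability, or CA1 or CA2 for caspase activation; those lethal without drug were dropped; hits were retested singly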.
The whole screen tested about 18,000 reagents; this is a random part of them. Of all reagents, 450 (2.5%) were called active. 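Single biological run; no consistent viability z cut-off exists, so the class columns, not z-scores, define the calls.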 Unmarked entries are inactive.

gene knocked down	viability hit class	caspase hit class	viability robust z-score	caspase robust z-score
TADA2A	no change	no change	-0.07	0.9
RHOJ	no change	no change	0.54	-0.8
ODF2L	no change	no change	0.12	-0.66
ARF3	no change	no change	-0.15	0.56
H1-5	no change (active)	CA1 (caspase activation)	-1.04	7.6
NAAA	no change	no change	1.02	0.01
HLA-A	no change	no change	1.23	0.21
TROAP	no change	no change	-0.21	0.88
CXCR1	no change	no change	-1.38	-0.86
C1orf174	no change	no change	-0.07	0.1
MSX1	no change	no change	0.1	0.07
ZNF677	no change	no change	-0.41	0.6
SULT2B1	no change	no change	-0.26	0.04
TMEM82	no change	no change	-0.52	1.8
PNPLA2	no change	no change	1.88	-0.08
FN3K	no change	no change	-0.66	0.16
ANO8	no change	no change	-1.07	-0.7
MTERF1	no change	no change	0.1	-0.04
HRK	no change	no change	-4.83	2.25
MLLT1	no change	no change	1.14	0.06
PCDHB5	no change	no change	-0.64	-0.38
MRPL46	no change	no change	-0.07	-1.34
CFAP210	no change	no change	0.4	0.3

Limited to “caspase hit class”, for 2 of the entries above:
TMEM82 = no change
PNPLA2 = no change
